Changes are numbered by the printed parent chain. Only a part is listed here, and it is no random draw. Calls are pooled over several reports, among them a noisy single-well screen. The list shows a part of the results.
Tests used:
Conditions in all cases: stereoisomer not certain
O51F1 = test system: T1, O51F1
T1 sequence (whole entry): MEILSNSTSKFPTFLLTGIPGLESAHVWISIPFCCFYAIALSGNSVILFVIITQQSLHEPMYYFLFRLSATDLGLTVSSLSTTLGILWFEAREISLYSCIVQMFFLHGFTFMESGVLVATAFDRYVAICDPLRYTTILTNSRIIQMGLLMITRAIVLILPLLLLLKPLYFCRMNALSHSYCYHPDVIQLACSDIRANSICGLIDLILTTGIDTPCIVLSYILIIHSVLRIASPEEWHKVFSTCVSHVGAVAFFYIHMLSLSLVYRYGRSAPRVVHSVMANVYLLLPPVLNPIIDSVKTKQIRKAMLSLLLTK
Summary of the method: (§1)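 Values were gathered from published papers (main text and supplementary material), with extra details requested from the original authors when needed, and checked for typos and inconsistencies. Each receptor–molecule pair is called responsive (active) if the original authors judged the measured signal statistically different from baseline, and non-responsive (inactive) otherwise. Assay methods varied by source, often transient mammalian cell-line luciferase assays. Recorded details include cell line, G-protein, co-transfected protein and tags.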

Chains of the proteins cited; added tags and fusions are not shown. A line that says so, or that is headed by a name, gives the form on record, which may keep a tag or linker.
O51L1, as listed by the source: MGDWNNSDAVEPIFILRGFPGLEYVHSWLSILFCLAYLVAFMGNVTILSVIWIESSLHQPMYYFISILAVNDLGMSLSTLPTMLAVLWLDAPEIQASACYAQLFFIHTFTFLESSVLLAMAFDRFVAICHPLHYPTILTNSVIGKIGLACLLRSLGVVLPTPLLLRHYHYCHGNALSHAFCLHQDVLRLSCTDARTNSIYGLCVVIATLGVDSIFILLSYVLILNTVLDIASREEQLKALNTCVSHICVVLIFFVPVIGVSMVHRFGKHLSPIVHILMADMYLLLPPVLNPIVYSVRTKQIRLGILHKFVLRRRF

O51F2 = test system: T2, O51F2
T2 sequence (whole entry): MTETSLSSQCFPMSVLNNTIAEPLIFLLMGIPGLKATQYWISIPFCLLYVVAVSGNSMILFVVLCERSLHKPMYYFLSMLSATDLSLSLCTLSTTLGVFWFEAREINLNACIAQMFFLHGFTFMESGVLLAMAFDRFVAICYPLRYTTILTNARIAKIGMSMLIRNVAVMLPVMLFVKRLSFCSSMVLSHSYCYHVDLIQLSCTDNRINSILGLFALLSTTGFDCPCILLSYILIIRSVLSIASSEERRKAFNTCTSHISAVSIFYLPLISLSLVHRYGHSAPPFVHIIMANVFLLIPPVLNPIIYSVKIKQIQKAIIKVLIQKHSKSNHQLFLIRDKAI
Summary of the method: as §1

O51G1 = test system: T3, O51G1
T3 sequence (whole entry): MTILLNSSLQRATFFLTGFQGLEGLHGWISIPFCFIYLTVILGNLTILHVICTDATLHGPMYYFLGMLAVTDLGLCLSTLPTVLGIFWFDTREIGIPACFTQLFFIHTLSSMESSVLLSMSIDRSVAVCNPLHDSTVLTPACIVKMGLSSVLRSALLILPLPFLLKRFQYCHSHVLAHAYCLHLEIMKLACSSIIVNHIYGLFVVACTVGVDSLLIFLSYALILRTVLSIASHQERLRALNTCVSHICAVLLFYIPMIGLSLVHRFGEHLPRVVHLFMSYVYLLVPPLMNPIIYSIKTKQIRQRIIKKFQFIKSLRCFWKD
Summary of the method: as §1

O51G2 = test system: T4, O51G2
T4 sequence (whole entry): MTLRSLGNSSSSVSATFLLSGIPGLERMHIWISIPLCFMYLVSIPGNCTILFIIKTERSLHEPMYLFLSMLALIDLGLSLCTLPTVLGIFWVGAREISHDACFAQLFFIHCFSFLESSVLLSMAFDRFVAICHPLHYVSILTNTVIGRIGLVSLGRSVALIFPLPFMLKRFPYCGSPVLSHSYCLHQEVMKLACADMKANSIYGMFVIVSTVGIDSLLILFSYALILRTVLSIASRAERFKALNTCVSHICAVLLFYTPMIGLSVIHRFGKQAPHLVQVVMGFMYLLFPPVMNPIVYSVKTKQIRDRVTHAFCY
Summary of the method: as §1

O51J1 = test system: T5, O51J1
T5 sequence (whole entry): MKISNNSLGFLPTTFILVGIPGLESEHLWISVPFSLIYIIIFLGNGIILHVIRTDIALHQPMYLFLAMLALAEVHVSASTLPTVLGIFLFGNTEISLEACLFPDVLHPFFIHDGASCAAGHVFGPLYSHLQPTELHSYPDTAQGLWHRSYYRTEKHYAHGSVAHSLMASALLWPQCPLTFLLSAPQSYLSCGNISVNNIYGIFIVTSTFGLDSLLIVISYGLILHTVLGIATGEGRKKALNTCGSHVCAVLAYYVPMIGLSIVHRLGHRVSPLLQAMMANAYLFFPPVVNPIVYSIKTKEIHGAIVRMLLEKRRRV
Summary of the method: as §1

O51L1 [1] = test system: T6, O51L1
T6 sequence (whole entry): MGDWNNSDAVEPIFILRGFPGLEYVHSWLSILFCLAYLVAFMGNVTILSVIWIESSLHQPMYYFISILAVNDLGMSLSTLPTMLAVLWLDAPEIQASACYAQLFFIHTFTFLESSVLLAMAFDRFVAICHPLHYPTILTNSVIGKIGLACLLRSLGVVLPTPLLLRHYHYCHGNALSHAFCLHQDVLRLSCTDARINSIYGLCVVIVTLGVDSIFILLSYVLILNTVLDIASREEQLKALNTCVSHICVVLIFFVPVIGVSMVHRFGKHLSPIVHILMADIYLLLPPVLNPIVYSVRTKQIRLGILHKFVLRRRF
Summary of the method: as §1

O51L1 [2] = test system: T7, O51L1; remark: listed apart in the source
T7 sequence (whole entry): T6 sequence (whole entry) with I196T, V207A, I281M
Summary of the method: as §1

O51M1 = test system: T8, O51M1
T8 sequence (whole entry): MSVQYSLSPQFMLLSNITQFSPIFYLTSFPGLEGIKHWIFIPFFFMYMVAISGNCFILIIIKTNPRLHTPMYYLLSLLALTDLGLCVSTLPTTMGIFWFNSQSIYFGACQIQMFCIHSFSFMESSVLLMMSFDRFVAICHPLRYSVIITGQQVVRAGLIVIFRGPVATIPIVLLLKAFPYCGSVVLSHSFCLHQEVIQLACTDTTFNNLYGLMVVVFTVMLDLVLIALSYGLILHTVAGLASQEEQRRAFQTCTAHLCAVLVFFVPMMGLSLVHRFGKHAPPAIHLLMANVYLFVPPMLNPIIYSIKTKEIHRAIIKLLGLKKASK
Summary of the method: as §1

O51Q1 = test system: T9, O51Q1
T9 sequence (whole entry): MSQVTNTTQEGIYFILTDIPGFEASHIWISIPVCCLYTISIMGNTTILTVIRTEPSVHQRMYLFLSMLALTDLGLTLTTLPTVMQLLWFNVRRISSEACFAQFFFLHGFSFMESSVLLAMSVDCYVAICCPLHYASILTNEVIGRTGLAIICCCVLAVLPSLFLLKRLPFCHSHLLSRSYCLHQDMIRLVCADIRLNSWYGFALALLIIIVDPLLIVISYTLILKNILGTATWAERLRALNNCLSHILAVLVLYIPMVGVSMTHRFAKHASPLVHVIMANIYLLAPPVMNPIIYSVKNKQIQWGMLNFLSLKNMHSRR
Summary of the method: as §1

O51T1 = test system: T10, O51T1
T10 sequence (whole entry): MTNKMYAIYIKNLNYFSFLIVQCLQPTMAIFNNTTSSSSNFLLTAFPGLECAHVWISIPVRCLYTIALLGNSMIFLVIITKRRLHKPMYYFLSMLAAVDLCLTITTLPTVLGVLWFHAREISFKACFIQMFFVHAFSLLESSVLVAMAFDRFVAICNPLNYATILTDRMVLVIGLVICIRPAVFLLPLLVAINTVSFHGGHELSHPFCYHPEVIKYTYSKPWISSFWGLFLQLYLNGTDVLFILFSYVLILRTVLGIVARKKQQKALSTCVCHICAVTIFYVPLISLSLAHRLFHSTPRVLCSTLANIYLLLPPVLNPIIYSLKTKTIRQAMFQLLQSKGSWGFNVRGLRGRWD
Summary of the method: as §1

Measured: odorant receptor agonist call

CCCCOC(C)=O
inactive: all assays above

CS
inactive: all assays above

CCC(C)=O
inactive: all assays above

From the M2OR odorant receptor database
